No constants are given. Whether binding was seen depends on the method and setting. Tags and fused reporters may be left off the sequences shown.

This assay has as its target T1, human Ly6e (myc-tagged) on HEK293T cells (human) (UniProt Q16553).
T1 sequence (looked up): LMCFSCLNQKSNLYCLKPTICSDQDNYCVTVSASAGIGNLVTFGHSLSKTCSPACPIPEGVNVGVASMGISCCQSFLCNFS
Put plainly: FACS, HEK293T/Ly6e cells, supernatant 1:2. A general note: In flow cytometry, cells or beads pass a laser one at a time.

B1: 4.19.1 (antibody, V domains shown)
VH: EVQLVESGGGLIQPGGSLRLSCAASGFSVSSNYMNWVRQAPGKGLEWVSVIYTGGSTYYADSVKGRFTISRDNSKNTLYLQMNSLRAEDTAVYYCARDTYLYGMDVWGQGTTVTVSS
VL: EIVMTQSPATLSVSPGESATLSCRTSQSVSSNLAWYQQKPGQTPRLLIYGASARATGVPARFSGSGSGTEFTLTISSLQSEDFAVYYCQQYYNWPLTFGGGTKVEIK
Consider B1, for which the binding entry was “no binding (tested: GeoMean ratio threshold 1.95)”.

B2: 4.18.1 (antibody, V domains shown)
VH: EVQLVESGGGLIQPGGSLRLSCAASGFTVRNNYMNWVRQAPGKGLEWVSVIYTGGSTYYADSVKGRFTISRDNSRNTLYLQMNSLRAEDTAVYYCAREGAVAGFDYWGQGTLVTVSL
VL: EIVMTQFPATLSMSPGERATLSCRASQSVSSSLAWYQQTPGQAPRLLIYGASTRSTGFPARFSGIGSGTEFTLTISSLQSEDFAVYYCQQYGNWPLTFGQGTRLEIK
As for B2, the binding entry is “no binding (tested: GeoMean ratio threshold 1.95)”.

B3: 2.6.1 (antibody, IgG4, V domains shown)
VH: EVQLVESGGGLIQPGGSLRLSCAASGFTVITNYMNWVRQAPGKGLEWVSIIYTGGSTSYADSVKGRFTVSRDNSKNTLYLHMNSLRVEDTAVYYCAREIAVAGYYGMDVWGQGTTVTVS
VL: DIQMTQSPSSLSASVGDRVTITCRASQGIRNDLGWYQQKPGKAPKRLIYAASSLQSGVPSRFSGSGSGTEFTLTISSLQPEDFATYYCLQHNSYPLTFGGGTRVEIK
B3: the binding entry is “no binding (tested: GeoMean ratio threshold 1.95)”.

B4: 1.4.2 (antibody, V domains shown)
VH: EVQLVESGGGLVQPGGSLRLSCAASGFTFSSYDMHWVRQATGKGLEWVSAIGTAGDTYYPGSVKGRFTISRENAKNSLYLQMNSLRAGDTAVYYCAREGDYSNYFTMVRGVTYGMDVWGQGTTVTVSS
VL: DIQLTQSPSSLCASVGDRITITCRASQGISKYLAWFQQKPGKAPKSLIYGASSLQSGVPAKFSGSGSGTDFTLTISSLQPEDFATYYCQQYNSYPLTFGGGTKVEIK
For B4, the binding entry was “no binding (tested: GeoMean ratio threshold 1.95)”.

B5: 1.61.1 (antibody, V domains shown)
VH: EVQLVESGGGLVQPGGSLRLSCAASGFTFSSYDMHWVRQATGKGLEWVSAIGTAGDTYYPGSVKGRFTISRENAKNSLYLQMNSLRAGDTAVYYCAREGDYSNYFTRVRGVTYGMDVWGQGTTVTVSS
VL: DIQMTQSPSSLSASVGDRVTITCRASQGISKYLAWFQQKPGKAPKSLIYGASSLQSGVPSKFSGSGSGTDFTLTISSLQPEDFATYYCQQYNSYPLTFGGGTKVEIK
With B5, the binding entry was “no binding (tested: GeoMean ratio threshold 1.95)”.

B6: 3.8.3 (antibody, V domains shown)
VH: EVQLVESGGGLVQPGGSLRLSCAASGFTFSSYWMSWVRQAPGKGLEWVANIKQHGSEKYYVDSVKGRFTISRDNAKNSLYLQMNSLRAEDTAVYYCAREEAYYYDNSGYYWYFDLWARGTLVTVSS
VL: DIQMTQSPSSVSASIGDRVTITCRASQGISSWLAWYQQKPGKTPKLLIYAASSLQSGVPSRFSGSGSGTDFTLTISSLQPEDFATYYCQQADSFPWTFGQGTKVEIK
Consider B6, for which the binding entry is on record as “no binding (tested: GeoMean ratio threshold 1.95)”.

Values taken from patent US20120108797A1.
